Paper PMC4703060
Substitutions are numbered along the chain they refer to. No constants are given. Whether binding was seen depends on the method and setting. Binding seen in cells or lysates may run through a third protein. Some results given as binding are weak or reduced against the parent protein; the word gives no strength. Tags and fused reporters may be left off the sequences shown.

The chains behind the UniProt entries cited, without tags or fusion partners. Where a name states a change or a piece, a line headed by the entry shows the natural chain unless it says otherwise. A line that says so, or that is headed by a name, gives the form on record, which may keep a tag or linker. Residues count along the entry.
HA-tagged C2 domain of WWP2 (C2-only, 1-143) (O00308, residues 1-143): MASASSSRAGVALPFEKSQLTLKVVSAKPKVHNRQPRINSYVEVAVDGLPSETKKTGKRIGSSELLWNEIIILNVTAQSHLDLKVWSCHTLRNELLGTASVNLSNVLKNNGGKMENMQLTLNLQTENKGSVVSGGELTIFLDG
HA-WWP2 with residues 1-300 deleted (N-terminally truncated WWP2) (O00308, residues 301-870): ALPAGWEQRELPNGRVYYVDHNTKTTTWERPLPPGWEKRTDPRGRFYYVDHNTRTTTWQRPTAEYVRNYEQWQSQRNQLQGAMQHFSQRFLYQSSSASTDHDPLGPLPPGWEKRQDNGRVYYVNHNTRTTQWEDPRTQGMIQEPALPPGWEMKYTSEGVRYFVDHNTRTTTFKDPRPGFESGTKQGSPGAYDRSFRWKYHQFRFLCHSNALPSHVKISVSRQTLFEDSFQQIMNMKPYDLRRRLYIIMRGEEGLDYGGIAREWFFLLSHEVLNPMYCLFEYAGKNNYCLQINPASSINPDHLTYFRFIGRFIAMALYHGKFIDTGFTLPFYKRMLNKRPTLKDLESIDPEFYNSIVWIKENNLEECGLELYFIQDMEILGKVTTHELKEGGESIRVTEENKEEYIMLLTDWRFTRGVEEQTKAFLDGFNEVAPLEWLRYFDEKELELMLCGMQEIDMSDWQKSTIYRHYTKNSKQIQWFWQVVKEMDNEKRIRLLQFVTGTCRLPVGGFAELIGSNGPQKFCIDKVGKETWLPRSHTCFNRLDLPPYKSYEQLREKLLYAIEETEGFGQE

What was measured:
Assay in all cases: co-IP; HEK293T cells co-transfected with GFP-tagged DEP domain of Dvl2 and HA-tagged ligases or HA-WWP2 truncations; α-GFP IP with GFP-Trap agarose beads, 1 h at 4°C; Western blot
[1] = target: T1, DEP-GFP (minimal DEP domain of Dvl2, 414-506, tagged with green fluorescent protein) (human) (UniProt O14641)
T1 sequence: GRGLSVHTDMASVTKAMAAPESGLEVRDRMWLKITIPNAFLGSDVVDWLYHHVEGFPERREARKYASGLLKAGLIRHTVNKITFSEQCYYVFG

[2] = target: T2, DEP-GFP K446M (human) (UniProt O14641)
T2 sequence: T1 sequence with K33M

[3] = target: T3, DEP-GFP D460K (human) (UniProt O14641)
T3 sequence: T1 sequence with D47K

| binding [1] | binding [2] | binding [3] | Substance |
| --- | --- | --- | --- |
| no binding |  |  | HA-WWP2 with residues 1-300 deleted (N-terminally truncated WWP2) (from UniProt O00308 301-870) (domain or fragment) |
| binds | binds | no binding | HA-tagged C2 domain of WWP2 (C2-only, 1-143) (from UniProt O00308 1-143) (domain or fragment) |
